The values that follow come from article PMC5803255.

Sequences of proteins named here, by UniProt entry; tags and fusion partners are left off. Residues count along the entry.
UniProt P30561, residues 10-848: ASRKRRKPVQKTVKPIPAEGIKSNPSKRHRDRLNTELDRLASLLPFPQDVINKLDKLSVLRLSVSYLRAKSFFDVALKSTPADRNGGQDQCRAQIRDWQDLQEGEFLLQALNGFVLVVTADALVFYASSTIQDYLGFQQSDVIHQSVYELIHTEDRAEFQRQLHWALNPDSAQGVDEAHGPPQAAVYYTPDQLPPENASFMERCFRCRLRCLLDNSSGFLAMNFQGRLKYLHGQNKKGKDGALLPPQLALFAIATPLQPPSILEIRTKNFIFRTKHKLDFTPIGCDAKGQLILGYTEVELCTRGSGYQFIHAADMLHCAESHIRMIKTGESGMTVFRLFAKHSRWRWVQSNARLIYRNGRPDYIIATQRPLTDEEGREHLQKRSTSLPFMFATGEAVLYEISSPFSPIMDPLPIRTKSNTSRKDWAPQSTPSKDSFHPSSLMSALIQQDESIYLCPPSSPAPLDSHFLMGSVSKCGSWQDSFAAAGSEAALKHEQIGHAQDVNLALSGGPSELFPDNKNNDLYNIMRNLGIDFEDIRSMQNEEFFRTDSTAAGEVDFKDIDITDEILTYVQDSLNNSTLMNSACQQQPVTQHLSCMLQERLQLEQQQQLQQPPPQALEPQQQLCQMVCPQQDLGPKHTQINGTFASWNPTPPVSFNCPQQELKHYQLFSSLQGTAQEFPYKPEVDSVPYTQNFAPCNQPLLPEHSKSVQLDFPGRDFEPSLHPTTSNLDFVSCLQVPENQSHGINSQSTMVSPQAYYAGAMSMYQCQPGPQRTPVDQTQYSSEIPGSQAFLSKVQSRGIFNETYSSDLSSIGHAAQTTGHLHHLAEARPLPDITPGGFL

No constants are given. Whether binding was seen depends on the method and setting. Binding seen in cells or lysates may run through a third protein. Some binding calls cover weakened binding; strength is not graded here. For part of these data: Where a sequence is shown, tags or fusion partners need not be part of it.

Experiment [1] addresses Aryl hydrocarbon receptor (AhR) (mouse (endogenous in mouse liver)) (UniProt P30561). Description: co-IP; mouse liver extracts (text: whole cell; legend: nuclear) from mice fasted 12 h, refed 4 h, or fasted 4 h and treated with FGF19 for 2 h; AhR immunoprecipitates blotted for SHP; CoIP buffer 50 mM Tris pH 8.0, 150 mM NaCl, 2 mM EDTA, 0.3% NP40, 10% glycerol.
The target is the same in experiment [2]. Description: co-IP; whole cell liver extracts of SHP-KO mice given Ad-SHP-WT or Ad-T55A-SHP and, 2 weeks later, FGF19 for 2 h; CoIP buffer 50 mM Tris pH 8.0, 150 mM NaCl, 2 mM EDTA, 0.3% NP40, 10% glycerol; precipitating antibody not stated for this panel.

B1: Small heterodimer partner (SHP, NR0B2) (protein, UniProt Q62227 1-260)
chain: MSSGQSGVCPCQGSAGRPTILYALLSPSPRTRPVAPASHSHCLCQQQRPVRLCAPHRTCREALDVLAKTVAFLRNLPSFCHLPHEDQRRLLECCWGPLFLLGLAQDAVTFEVAEAPVPSILKKILLEEASSGTQGAQPSDRPQPSLAAVQWLQRCLESFWSLELGPKEYAYLKGTILFNPDVPGLRASCHIAHLQQEAHWALCEVLEPWYPASQGRLARILLMASTLKNIPGTLLVDLFFRPIMGDVDITELLEDMLLLR
In the case of B1, the binding result in experiment [1] was “binds”.

B2: SHP-WT (adenovirally expressed, Ad-SHP-WT) (protein, UniProt Q15466 1-257)
chain: MSTSQPGACPCQGAASRPAILYALLSSSLKAVPRPRSRCLCRQHRPVQLCAPHRTCREALDVLAKTVAFLRNLPSFWQLPPQDQRRLLQGCWGPLFLLGLAQDAVTFEVAEAPVPSILKKILLEEPSSSGGSGQLPDRPQPSLAAVQWLQCCLESFWSLELSPKEYACLKGTILFNPDVPGLQAASHIGHLQQEAHWVLCEVLEPWCPAAQGRLTRVLLTASTLKSIPTSLLGDLFFRPIIGDVDIAGLLGDMLLLR
For B2, the binding result in experiment [2] is listed as “binds”.

B3: T55A-SHP (phosphorylation-defective mutant, Ad-T55A-SHP) (protein, UniProt Q15466 1-257)
chain: MSTSQPGACPCQGAASRPAILYALLSSSLKAVPRPRSRCLCRQHRPVQLCAPHRACREALDVLAKTVAFLRNLPSFWQLPPQDQRRLLQGCWGPLFLLGLAQDAVTFEVAEAPVPSILKKILLEEPSSSGGSGQLPDRPQPSLAAVQWLQCCLESFWSLELSPKEYACLKGTILFNPDVPGLQAASHIGHLQQEAHWVLCEVLEPWCPAAQGRLTRVLLTASTLKSIPTSLLGDLFFRPIIGDVDIAGLLGDMLLLR
On to B3, for which the binding entry in experiment [2] is on record as “no binding”.
